Assay results taken from article PMC5833450.
Results are given in words; binding and its absence hold for the method and conditions named. In cells and extracts the contact can be indirect. Some binding calls cover weakened binding; strength is not graded here.

The chains behind the UniProt entries cited, without tags or fusion partners.
UniProt P10415: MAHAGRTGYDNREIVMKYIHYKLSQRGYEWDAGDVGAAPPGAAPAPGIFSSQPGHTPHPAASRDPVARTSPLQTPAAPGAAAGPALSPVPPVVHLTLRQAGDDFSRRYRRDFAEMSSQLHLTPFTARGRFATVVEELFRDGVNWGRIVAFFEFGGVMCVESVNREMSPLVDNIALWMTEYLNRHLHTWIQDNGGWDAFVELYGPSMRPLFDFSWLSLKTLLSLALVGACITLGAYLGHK
UniProt P14598: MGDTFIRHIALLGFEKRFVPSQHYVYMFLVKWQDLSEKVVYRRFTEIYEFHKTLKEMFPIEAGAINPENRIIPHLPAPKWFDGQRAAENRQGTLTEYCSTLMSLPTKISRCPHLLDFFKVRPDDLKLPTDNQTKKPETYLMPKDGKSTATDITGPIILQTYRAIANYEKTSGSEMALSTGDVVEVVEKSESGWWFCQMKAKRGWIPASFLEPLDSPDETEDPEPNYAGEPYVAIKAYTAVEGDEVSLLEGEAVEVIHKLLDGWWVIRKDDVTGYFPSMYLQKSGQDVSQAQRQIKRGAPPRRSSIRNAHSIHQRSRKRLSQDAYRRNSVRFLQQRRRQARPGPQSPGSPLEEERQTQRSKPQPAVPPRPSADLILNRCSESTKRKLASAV
UniProt Q14457: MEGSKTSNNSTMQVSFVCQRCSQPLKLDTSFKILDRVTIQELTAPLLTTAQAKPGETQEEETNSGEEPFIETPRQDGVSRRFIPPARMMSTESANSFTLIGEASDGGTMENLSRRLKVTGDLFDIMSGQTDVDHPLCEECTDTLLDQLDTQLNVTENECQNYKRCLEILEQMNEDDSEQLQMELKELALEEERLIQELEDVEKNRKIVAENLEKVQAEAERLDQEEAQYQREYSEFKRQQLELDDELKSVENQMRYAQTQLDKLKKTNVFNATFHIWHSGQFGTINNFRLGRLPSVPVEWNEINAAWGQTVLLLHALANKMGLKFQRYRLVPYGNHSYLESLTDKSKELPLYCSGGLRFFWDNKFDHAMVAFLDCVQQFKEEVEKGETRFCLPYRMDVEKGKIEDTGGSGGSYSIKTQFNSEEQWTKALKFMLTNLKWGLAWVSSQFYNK
UniProt Q03135: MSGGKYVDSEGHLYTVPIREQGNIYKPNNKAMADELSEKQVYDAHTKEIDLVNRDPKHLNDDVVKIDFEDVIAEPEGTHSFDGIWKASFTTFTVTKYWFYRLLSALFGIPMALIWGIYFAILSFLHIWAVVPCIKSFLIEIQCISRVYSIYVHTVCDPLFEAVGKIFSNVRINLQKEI

Legend:
[1] = target: Bcl-2 (human (endogenous in HCT116)) (UniProt P10415); test: co-IP
[2] = target: NCF-1 (human (endogenous in HCT116)) (UniProt P14598); test: co-IP

| binding [1] | binding [2] | Molecule |
| --- | --- | --- |
| binds |  | Beclin-1 (from UniProt Q14457 1-450) |
|  | binds | caveolin-1 (from UniProt Q03135 1-178) |
|  | binds | melatonin receptor 2 (receptor, UniProt P49286 1-362) MSENGSFANCCEAGGWAVRPGWSGAGSARPSRTPRPPWVAPALSAVLIVTTAVDVVGNLLVILSVLRNRKLRNAGNLFLVSLALADLVVAFYPYPLILVAIFYDGWALGEEHCKASAFVMGLSVIGSVFNITAIAINRYCYICHSMAYHRIYRRWHTPLHICLIWLLTVVALLPNFFVGSLEYDPRIYSCTFIQTASTQYTAAVVVIHFLLPIAVVSFCYLRIWVLVLQARRKAKPESRLCLKPSDLRSFLTMFVVFVIFAICWAPLNCIGLAVAINPQEMAPQIPEGLFVTSYLLAYFNSCLNAIVYGLLNQNFRREYKRILLALWNPRHCIQDASKGSHAEGLQSPAPPIIGVQHQADAL |
